Measurements: article PMC5155162
No constants are given. Whether binding was seen depends on the method and setting. Binding seen in cells or lysates may run through a third protein. Some entries that bind do so weakly or less than the wild type.

The chains behind the UniProt entries cited, without tags or fusion partners. Where a name states a change or a piece, a line headed by the entry shows the natural chain unless it says otherwise. A line that says so, or that is headed by a name, gives the form on record, which may keep a tag or linker.
UniProt Q96D31: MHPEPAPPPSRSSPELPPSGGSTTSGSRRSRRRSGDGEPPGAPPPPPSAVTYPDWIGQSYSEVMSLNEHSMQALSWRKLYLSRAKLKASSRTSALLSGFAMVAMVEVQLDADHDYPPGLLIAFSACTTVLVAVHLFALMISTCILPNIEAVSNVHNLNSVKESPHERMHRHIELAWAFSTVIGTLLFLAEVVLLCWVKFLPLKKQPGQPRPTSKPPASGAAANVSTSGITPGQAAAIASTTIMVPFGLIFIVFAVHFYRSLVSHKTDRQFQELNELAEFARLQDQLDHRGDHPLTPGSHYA
C-terminally tagged CFP- and YFP-Orai1-ANSGA (Q96D31, form named): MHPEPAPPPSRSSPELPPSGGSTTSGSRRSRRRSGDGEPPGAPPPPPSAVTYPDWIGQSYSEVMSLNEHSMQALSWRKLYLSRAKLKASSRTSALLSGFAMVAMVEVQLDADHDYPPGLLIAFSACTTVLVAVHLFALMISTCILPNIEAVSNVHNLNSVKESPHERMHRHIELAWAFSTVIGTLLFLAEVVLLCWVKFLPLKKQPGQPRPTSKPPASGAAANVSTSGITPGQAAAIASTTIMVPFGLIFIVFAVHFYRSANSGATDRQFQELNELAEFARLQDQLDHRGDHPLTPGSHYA

Key:
[1] = molecular target: C-terminally tagged CFP- and YFP-Orai1 (Orai1-WT) (human) (UniProt Q96D31); assay: FRET or BRET; Orai1-Orai1 FRET between C-terminally CFP- and YFP-tagged copies expressed as a mixture in cells; before and after store depletion
[2] = molecular target: C-terminally tagged CFP- and YFP-Orai1-ANSGA (human) (UniProt Q96D31); assay: as above

| binding [1] | binding [2] | Substance |
| --- | --- | --- |
| binds | – | C-terminally tagged CFP- and YFP-Orai1 (Orai1-WT) (from UniProt Q96D31 1-301) |
| – | binds | C-terminally tagged CFP- and YFP-Orai1-ANSGA (from UniProt Q96D31 1-301) |
